Data as given in patent publication US6870069B2, “Phenyloxyaniline derivatives” (National Institute of Radiological Sciences, priority 2003, dated 2005).
Some entries share one result that the patent states for a list of compounds.

Target: T1, central benzodiazepine receptor (CBR)
T1 construct: IC50 CBR; other: [11C]flumazenil
Experiment: Affinity to CBR using [11C]flumazenil, a selective ligand for CBR
Type: binding, rat
Description: On the other hand, affinity of FMDAA1106 and FEDAA1106 to central benzodiazepine receptor (CBR) was determined (Table 1) using [^11C]flumazenil which is a selective ligand for CBR. As a result, affinity of FEDAA1106 and FMDAA1106 to CBR was not less than 10 μM and was about 10,000-fold weaker than the affinity of PBR. […] Incidentally, partition coefficients (log P) of the two ligands were measured by an octanol/water (pH 7.4) partition method.

## COc1ccc(OCCF)c(CN(C(C)=O)c2cc(F)ccc2Oc2ccccc2)c1 [FEDAA1106, N-[2-(2-fluoro)ethyl-5-methoxybenzyl]-N-(5-fluoro-2-phenoxyphenyl)acetamide]
  IC50: ≥ 10 µM
